The target of test [1] is T1, NOX2 (human (endogenous in human umbilical vein endothelial cells)) (UniProt P04839).
T1 sequence: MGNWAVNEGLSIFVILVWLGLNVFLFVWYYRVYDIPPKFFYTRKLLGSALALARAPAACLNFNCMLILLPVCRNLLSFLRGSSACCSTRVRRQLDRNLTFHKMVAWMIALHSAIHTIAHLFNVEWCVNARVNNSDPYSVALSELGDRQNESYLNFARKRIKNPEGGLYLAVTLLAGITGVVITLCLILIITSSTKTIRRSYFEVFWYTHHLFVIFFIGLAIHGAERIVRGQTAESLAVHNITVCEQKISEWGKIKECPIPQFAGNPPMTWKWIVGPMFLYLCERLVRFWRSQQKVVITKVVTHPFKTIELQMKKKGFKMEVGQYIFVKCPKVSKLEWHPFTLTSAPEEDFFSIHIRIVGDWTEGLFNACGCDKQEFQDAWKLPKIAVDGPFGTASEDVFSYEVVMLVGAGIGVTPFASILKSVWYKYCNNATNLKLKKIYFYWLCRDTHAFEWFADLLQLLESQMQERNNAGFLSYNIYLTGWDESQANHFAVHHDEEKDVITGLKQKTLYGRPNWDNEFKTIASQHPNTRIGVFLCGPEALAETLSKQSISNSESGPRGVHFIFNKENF
In words: co-IP; whole cell lysate of endothelial cells exposed to oscillatory shear stress (OSS) for different times; which of the two was precipitated is not stated; blot quantified for p47.

Amino acid sequences for entries named in this document (tags omitted).
UniProt P14598: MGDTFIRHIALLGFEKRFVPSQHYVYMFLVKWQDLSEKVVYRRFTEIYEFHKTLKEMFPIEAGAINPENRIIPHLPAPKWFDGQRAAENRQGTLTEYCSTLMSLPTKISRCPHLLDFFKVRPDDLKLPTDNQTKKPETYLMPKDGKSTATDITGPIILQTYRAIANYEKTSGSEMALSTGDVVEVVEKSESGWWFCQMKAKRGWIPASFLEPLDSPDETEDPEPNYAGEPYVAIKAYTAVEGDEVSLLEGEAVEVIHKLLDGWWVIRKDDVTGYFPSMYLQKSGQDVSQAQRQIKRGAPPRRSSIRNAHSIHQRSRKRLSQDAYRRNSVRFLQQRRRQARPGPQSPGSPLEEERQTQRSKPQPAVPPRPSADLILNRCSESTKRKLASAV

Test [2] concerns the target T2, caveolin-1 (human (endogenous in human umbilical vein endothelial cells)), Q03135.
T2 chain: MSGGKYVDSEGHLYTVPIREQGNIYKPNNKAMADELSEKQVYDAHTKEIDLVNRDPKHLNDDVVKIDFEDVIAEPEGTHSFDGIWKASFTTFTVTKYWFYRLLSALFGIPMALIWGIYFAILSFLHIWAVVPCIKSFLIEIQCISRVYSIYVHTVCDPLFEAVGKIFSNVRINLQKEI
In words: co-IP; lysate of endothelial cells after flow treatment (OSS; also with siTLR4) incubated with caveolin-1 (antibody) overnight at 4°C, protein A+G 4 h, washed five times with RIPA; blot for total eNOS. The settings on record: remark: other sources report otherwise.

Results are given in words; binding and its absence hold for the method and conditions named. In cells and extracts the contact can be indirect. Some binding calls cover weakened binding; strength is not graded here.

As for p47 (from UniProt P14598 1-390), the binding entry in test [1] is “binds”.

B1: endothelial nitric oxide synthase, P29474 1-1203 (enzyme)
chain: MGNLKSVAQEPGPPCGLGLGLGLGLCGKQGPATPAPEPSRAPASLLPPAPEHSPPSSPLTQPPEGPKFPRVKNWEVGSITYDTLSAQAQQDGPCTPRRCLGSLVFPRKLQGRPSPGPPAPEQLLSQARDFINQYYSSIKRSGSQAHEQRLQEVEAEVAATGTYQLRESELVFGAKQAWRNAPRCVGRIQWGKLQVFDARDCRSAQEMFTYICNHIKYATNRGNLRSAITVFPQRCPGRGDFRIWNSQLVRYAGYRQQDGSVRGDPANVEITELCIQHGWTPGNGRFDVLPLLLQAPDDPPELFLLPPELVLEVPLEHPTLEWFAALGLRWYALPAVSNMLLEIGGLEFPAAPFSGWYMSTEIGTRNLCDPHRYNILEDVAVCMDLDTRTTSSLWKDKAAVEINVAVLHSYQLAKVTIVDHHAATASFMKHLENEQKARGGCPADWAWIVPPISGSLTPVFHQEMVNYFLSPAFRYQPDPWKGSAAKGTGITRKKTFKEVANAVKISASLMGTVMAKRVKATILYGSETGRAQSYAQQLGRLFRKAFDPRVLCMDEYDVVSLEHETLVLVVTSTFGNGDPPENGESFAAALMEMSGPYNSSPRPEQHKSYKIRFNSISCSDPLVSSWRRKRKESSNTDSAGALGTLRFCVFGLGSRAYPHFCAFARAVDTRLEELGGERLLQLGQGDELCGQEEAFRGWAQAAFQAACETFCVGEDAKAAARDIFSPKRSWKRQRYRLSAQAEGLQLLPGLIHVHRRKMFQATIRSVENLQSSKSTRATILVRLDTGGQEGLQYQPGDHIGVCPPNRPGLVEALLSRVEDPPAPTEPVAVEQLEKGSPGGPPPGWVRDPRLPPCTLRQALTFFLDITSPPSPQLLRLLSTLAEEPREQQELEALSQDPRRYEEWKWFRCPTLLEVLEQFPSVALPAPLLLTQLPLLQPRYYSVSSAPSTHPGEIHLTVAVLAYRTQDGLGPLHYGVCSTWLSQLKPGDPVPCFIRGAPSFRLPPDPSLPCILVGPGTGIAPFRGFWQERLHDIESKGLQPTPMTLVFGCRCSQLDHLYRDEVQNAQQRGVFGRVLTAFSREPDNPKTYVQDILRTELAAEVHRVLCLERGHMFVCGDVTMATNVLQTVQRILATEGDMELDEAGDVIGVLRDQQRYHEDIFGLTLRTQEVTSRIRTQSFSLQERQLRGAVPWAFDPPGSDTNSP
On to B1, for which the binding entry in test [2] is reported as “binds”.
